Data as given in publication doi:10.1101/2020.05.19.104463.
These are yes or no findings as the source states them, for the method shown. Binding seen in cells or lysates may run through a third protein. These calls come from enrichment with a bait or labelling near it, and not all partners need be listed. Tags and fused reporters may be left off the sequences shown.

Molecular target: T1, GFP-RAB13(T22N) (human) (UniProt P51153)
T1 sequence: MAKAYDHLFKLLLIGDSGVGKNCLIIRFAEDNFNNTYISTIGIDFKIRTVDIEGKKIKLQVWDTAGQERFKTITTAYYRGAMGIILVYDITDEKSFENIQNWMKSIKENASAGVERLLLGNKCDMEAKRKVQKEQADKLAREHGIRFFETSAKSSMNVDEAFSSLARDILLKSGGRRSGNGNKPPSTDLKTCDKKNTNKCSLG
Experiment: affinity purification with mass spectrometry

B1: RABIF/MSS4 (protein, UniProt P47224 1-123)
chain: MEPAEQPSELVSAEGRNRKAVLCQRCGSRVLQPGTALFSRRQLFLPSMRKKPALSDGSNPDGDLLQEHWLVEDMFIFENVGFTKDVGNIKFLVCADCEIGPIGWHCLDDKNSFYVALERVSHE
- binding: binds
